Laboratory results published in publication PMC8950122.
Results are given in words; binding and its absence hold for the method and conditions named. In cells and extracts the contact can be indirect. For some of these results: Where a sequence is shown, tags or fusion partners need not be part of it.

Protein sequences, listed by entry. Tags and fused reporters are not part of them. Chains listed by the source or under a name are the forms on record and can include a tag or linker. Residues count along the entry.
UniProt P62955: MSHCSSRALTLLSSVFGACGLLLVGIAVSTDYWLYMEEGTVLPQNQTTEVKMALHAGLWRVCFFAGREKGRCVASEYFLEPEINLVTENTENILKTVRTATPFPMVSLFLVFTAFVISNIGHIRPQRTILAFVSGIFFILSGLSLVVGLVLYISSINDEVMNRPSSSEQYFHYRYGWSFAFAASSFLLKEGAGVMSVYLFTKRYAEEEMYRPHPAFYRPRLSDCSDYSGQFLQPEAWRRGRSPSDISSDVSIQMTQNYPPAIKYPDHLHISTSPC
UniProt Q14494: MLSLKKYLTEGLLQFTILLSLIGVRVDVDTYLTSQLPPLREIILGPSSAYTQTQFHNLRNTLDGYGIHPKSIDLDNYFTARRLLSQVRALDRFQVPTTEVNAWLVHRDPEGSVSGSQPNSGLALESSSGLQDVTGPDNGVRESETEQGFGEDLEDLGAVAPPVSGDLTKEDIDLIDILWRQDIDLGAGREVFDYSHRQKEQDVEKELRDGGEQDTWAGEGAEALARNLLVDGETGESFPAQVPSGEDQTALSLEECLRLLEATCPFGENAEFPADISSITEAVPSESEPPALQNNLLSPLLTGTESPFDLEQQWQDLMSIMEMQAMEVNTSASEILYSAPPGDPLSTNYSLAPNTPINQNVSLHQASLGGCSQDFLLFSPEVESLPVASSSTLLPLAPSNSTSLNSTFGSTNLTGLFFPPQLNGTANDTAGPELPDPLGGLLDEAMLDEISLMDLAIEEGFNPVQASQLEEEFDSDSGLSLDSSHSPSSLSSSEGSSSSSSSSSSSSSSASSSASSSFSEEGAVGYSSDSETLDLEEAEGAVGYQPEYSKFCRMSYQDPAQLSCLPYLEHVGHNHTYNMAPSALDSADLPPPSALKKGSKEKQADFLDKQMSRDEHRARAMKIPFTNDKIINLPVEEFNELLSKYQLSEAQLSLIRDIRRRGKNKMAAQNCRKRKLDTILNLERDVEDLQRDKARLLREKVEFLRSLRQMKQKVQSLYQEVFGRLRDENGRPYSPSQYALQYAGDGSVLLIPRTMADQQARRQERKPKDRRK
UniProt P02724, residues 20-150: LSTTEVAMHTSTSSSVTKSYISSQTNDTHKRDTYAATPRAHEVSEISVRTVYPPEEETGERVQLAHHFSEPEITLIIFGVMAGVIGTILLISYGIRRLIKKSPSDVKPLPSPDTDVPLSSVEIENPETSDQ
PB2-N (residues 1 to 247) fused to Luc1 or Luc2 (P03427, residues 1-247): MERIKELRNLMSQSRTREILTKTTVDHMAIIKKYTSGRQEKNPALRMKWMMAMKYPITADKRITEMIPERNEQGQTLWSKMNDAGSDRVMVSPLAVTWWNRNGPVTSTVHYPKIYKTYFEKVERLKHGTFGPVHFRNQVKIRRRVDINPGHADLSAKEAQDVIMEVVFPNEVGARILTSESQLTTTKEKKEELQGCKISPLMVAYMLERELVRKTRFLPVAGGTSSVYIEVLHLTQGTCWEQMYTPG
PB2(36–247) fused to Luc2 (P03427, residues 36-247): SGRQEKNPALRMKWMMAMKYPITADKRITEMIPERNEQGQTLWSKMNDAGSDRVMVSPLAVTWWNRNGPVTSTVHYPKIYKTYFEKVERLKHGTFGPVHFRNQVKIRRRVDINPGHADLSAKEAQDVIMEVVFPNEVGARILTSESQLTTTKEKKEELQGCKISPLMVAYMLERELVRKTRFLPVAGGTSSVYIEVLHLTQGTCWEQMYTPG

How the values were obtained:
Test in all cases: split reporter
Contactin-2, Luc1-tagged = biological target: T1, Contactin-2, Luc1-tagged (UniProt Q02246)
T1 sequence: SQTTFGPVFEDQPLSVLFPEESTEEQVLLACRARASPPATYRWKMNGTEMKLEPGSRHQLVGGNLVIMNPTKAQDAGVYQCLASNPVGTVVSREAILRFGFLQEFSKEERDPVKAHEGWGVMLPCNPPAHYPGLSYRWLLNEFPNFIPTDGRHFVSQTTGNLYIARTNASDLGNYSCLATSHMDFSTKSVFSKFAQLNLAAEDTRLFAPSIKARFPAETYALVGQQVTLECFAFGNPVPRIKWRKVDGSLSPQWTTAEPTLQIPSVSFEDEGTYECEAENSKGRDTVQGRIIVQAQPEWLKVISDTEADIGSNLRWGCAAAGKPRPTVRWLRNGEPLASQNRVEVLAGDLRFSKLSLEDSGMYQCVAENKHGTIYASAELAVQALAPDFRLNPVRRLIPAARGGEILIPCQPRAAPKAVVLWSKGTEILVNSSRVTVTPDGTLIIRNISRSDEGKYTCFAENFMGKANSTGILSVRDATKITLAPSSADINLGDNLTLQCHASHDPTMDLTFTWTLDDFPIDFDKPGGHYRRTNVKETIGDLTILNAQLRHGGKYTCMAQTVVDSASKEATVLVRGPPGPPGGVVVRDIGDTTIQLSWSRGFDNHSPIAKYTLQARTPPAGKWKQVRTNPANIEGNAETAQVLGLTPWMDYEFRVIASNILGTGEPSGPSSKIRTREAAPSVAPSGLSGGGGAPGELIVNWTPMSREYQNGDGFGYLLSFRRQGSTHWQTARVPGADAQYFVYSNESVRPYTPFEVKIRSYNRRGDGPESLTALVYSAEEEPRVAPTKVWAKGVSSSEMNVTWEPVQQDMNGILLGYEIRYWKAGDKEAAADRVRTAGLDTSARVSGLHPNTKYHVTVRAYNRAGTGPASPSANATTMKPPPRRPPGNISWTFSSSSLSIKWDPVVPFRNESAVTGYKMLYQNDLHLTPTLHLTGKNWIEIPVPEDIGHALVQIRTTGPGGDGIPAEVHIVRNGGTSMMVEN

[1] = biological target: T2, MICOS complex subunit MIC27, Luc1-tagged (UniProt Q6UXV4)
T2 sequence: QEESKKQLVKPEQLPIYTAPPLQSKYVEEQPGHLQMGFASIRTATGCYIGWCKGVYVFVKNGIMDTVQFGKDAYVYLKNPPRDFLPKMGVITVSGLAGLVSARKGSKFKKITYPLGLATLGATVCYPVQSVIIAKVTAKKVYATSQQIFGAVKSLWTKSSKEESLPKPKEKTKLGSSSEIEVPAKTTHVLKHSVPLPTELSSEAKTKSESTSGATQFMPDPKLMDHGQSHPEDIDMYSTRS

[2] = biological target: T3, Neurexophilin-1, Luc1-tagged (UniProt P58417)
T3 sequence: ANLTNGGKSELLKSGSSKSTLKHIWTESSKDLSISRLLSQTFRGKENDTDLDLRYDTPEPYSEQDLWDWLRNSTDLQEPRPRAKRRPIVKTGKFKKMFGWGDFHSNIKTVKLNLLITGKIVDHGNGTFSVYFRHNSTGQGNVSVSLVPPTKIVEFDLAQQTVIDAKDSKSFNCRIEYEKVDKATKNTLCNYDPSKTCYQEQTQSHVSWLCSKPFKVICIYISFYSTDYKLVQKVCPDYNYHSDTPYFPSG

[3] = biological target: Voltage-dependent calcium channel gamma-7 subunit, Luc1-tagged (UniProt P62955)
[4] = biological target: T4, dopamine beta-hydroxylase, Luc1-tagged (UniProt P09172)
T4 sequence: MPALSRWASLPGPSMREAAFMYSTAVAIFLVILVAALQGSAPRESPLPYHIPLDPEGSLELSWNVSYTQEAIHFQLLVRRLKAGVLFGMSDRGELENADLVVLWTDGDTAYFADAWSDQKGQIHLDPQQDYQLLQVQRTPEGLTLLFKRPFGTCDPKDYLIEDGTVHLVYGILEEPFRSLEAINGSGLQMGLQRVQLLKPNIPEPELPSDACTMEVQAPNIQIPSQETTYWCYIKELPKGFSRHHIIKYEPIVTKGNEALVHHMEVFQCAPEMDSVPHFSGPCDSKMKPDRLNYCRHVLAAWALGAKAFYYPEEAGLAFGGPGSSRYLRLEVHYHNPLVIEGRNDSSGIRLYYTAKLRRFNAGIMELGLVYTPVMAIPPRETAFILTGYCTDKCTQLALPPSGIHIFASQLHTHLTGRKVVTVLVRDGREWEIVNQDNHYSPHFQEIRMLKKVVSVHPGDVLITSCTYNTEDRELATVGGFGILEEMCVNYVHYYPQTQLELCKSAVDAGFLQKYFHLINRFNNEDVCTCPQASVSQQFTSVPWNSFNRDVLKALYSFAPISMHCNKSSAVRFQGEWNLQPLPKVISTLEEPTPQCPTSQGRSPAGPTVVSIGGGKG

[5] = biological target: endoplasmic reticulum membrane sensor NFE2L1, Luc1-tagged (UniProt Q14494)
[6] = biological target: T5, glutathione S-transferase theta-1, Luc1-tagged (UniProt P30711)
T5 sequence: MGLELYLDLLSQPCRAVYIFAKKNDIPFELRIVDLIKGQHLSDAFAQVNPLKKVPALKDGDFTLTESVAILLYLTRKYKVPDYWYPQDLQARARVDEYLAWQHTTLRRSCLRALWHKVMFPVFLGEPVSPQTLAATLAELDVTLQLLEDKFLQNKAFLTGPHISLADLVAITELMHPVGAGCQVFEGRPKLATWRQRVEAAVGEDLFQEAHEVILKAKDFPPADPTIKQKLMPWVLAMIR

[7] = biological target: glycophorin-A, Luc1-tagged (UniProt P02724)

Measured: binding

PB2(36–247) fused to Luc2 (from UniProt P03427 36-247) (domain or fragment)
no binding: all assays above

PB2-N (residues 1 to 247) fused to Luc1 or Luc2 (from UniProt P03427 1-247) (domain or fragment)
no binding: all assays above
